This is one part of the list.
Compound: Cc1cc(ccc1-c1ccccc1)C(=O)N1CCCN(CC1)C(=O)CCl [compound 10]
Experiment: probe-labelled cysteine peptide fold change vs DMSO (competition) (log2 fold change); higher = less target engagement (more negative = stronger competition)
Conditions: THP-1, incubation time: 4 h
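Further: competitive profiling in live THP-1 cells: cysteine peptides tagged with an iodoacetamide desthiobiotin (IA-DTB) probe, intensity after compound treatment relative to DMSO-treated cells.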

The chains behind the UniProt entries cited, without tags or fusion partners. Where a name states a change or a piece, a line headed by the entry shows the natural chain unless it says otherwise.
UniProt P46013: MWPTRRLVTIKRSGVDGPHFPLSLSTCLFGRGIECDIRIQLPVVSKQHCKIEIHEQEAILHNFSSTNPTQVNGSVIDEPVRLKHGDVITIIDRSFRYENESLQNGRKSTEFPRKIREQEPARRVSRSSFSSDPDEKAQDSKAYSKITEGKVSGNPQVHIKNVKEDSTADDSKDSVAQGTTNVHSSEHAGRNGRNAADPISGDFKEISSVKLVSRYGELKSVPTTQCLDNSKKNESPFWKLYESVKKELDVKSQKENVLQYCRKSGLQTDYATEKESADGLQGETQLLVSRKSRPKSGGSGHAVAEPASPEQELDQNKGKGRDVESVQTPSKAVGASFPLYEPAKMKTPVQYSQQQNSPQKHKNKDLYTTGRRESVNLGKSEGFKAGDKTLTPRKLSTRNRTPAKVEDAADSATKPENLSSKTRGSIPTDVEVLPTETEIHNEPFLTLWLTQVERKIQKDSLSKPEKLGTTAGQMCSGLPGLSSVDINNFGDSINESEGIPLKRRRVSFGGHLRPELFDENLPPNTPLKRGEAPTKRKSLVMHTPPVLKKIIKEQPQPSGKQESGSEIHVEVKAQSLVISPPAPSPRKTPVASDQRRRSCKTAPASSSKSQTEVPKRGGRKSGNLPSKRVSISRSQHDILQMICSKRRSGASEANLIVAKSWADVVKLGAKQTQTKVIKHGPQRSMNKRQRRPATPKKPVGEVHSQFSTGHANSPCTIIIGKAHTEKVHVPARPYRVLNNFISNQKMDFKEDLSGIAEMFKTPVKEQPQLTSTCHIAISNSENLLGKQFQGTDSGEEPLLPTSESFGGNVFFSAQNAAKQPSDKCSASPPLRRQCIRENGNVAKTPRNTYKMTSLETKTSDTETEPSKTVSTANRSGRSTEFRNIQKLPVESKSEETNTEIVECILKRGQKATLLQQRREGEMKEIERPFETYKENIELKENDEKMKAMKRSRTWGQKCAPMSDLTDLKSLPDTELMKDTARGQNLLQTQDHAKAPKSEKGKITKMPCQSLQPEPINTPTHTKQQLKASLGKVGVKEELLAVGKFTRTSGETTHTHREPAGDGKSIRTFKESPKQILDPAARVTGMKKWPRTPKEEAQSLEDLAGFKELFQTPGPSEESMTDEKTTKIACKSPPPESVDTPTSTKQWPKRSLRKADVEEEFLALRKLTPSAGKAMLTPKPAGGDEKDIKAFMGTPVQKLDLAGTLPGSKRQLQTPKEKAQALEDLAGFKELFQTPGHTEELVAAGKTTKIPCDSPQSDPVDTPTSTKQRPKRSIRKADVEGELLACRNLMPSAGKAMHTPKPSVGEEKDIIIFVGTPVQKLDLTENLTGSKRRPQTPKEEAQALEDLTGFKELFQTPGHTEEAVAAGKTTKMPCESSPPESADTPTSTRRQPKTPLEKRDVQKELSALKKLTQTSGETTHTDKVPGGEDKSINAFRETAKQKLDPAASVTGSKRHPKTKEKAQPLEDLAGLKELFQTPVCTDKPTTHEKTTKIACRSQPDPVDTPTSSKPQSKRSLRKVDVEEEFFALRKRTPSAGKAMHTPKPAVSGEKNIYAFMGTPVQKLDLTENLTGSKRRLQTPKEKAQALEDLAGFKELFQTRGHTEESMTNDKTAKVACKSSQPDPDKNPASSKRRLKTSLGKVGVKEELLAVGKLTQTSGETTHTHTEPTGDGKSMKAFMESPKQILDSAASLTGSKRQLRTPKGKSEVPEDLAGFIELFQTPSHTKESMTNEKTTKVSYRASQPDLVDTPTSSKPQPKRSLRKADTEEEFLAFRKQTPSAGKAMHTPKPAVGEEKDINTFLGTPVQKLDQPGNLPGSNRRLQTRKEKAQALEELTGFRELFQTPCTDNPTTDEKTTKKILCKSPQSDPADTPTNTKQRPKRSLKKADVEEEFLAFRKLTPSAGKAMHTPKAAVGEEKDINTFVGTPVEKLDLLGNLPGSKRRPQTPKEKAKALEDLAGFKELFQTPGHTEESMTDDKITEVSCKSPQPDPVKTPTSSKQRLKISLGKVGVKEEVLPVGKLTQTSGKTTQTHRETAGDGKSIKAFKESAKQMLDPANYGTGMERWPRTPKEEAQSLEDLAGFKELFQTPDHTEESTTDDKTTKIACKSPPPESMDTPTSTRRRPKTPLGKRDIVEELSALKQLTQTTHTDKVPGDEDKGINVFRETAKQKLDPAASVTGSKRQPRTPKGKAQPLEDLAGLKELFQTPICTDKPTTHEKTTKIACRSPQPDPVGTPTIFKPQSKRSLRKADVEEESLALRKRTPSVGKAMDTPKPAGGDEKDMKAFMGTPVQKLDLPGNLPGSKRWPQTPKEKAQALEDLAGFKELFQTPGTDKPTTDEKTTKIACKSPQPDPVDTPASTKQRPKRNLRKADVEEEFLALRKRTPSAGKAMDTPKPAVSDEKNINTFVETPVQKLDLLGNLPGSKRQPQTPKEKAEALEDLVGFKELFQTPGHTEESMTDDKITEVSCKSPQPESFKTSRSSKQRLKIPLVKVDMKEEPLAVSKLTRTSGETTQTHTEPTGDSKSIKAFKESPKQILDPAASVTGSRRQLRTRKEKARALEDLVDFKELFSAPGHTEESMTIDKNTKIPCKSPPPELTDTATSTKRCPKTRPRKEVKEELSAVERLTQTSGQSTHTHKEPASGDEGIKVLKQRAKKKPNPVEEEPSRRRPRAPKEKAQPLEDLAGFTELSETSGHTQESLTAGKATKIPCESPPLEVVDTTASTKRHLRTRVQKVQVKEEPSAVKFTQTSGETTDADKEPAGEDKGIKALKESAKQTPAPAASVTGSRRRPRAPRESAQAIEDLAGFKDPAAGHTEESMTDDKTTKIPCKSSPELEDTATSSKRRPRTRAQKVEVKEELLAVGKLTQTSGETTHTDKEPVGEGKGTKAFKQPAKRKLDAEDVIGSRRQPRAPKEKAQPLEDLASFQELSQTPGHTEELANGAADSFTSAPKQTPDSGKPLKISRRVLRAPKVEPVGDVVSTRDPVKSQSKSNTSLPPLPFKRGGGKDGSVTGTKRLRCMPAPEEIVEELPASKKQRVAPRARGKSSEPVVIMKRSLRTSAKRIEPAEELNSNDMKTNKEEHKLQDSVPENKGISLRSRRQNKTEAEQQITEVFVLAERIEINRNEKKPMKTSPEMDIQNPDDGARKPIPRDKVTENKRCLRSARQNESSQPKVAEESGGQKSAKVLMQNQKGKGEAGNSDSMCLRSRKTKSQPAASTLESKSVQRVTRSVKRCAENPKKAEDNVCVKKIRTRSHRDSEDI
UniProt Q9BV20: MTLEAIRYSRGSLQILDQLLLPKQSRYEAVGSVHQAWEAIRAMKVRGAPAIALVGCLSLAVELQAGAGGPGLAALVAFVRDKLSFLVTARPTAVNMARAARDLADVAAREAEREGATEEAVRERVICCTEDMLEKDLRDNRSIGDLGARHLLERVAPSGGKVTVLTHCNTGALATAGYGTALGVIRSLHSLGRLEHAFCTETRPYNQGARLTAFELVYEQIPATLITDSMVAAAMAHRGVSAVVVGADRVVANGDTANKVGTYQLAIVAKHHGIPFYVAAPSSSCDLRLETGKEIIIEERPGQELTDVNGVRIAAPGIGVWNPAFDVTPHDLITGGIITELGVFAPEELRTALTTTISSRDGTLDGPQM
UniProt Q9NXC5: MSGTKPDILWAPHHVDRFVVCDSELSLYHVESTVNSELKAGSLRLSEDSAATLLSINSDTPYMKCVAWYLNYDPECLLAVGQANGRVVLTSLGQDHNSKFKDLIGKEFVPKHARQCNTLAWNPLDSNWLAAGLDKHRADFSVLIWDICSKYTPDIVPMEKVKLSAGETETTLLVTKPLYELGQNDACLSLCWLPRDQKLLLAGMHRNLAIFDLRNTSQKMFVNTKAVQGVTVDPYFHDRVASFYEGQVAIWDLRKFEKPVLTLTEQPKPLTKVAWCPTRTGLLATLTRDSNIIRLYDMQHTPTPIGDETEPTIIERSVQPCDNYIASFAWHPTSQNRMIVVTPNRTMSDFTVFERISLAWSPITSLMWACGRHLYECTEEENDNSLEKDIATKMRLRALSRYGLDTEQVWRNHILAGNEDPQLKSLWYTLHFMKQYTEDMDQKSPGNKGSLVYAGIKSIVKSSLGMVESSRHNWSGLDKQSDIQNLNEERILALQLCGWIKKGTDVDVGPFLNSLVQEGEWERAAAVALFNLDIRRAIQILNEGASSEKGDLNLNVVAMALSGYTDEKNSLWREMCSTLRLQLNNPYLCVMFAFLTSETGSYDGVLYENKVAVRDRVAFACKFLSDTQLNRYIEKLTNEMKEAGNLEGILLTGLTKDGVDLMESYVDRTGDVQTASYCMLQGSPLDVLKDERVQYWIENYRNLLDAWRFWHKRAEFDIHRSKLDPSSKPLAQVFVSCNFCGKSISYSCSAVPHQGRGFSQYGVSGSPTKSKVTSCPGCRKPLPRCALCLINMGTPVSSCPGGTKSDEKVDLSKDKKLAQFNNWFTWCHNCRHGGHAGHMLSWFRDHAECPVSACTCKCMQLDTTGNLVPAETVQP
UniProt O00566: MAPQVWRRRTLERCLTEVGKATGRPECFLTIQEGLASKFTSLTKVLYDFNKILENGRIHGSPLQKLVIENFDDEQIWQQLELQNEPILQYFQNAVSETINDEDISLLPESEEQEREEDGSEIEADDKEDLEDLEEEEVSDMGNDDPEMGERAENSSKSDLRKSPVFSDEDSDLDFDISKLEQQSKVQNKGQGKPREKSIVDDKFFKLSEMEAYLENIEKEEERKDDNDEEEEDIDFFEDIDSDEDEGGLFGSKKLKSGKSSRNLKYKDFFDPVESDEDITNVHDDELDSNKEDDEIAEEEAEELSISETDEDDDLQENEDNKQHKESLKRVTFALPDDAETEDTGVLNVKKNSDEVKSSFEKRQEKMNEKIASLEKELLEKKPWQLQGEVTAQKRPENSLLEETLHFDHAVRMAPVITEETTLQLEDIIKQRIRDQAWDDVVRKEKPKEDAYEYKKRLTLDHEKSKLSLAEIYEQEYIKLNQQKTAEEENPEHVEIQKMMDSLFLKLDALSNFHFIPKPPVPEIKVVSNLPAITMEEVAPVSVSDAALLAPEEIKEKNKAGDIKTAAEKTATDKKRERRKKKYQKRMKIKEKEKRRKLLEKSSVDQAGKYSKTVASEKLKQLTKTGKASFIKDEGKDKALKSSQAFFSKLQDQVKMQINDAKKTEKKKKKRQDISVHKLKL
UniProt P25325: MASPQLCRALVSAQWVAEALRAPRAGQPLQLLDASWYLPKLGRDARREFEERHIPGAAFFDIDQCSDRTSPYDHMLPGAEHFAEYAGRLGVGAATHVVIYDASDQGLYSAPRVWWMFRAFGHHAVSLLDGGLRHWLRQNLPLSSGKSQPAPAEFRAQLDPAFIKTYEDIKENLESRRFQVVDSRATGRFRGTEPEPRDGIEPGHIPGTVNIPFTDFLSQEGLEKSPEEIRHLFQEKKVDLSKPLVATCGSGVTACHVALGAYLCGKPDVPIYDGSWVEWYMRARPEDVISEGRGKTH
UniProt Q9Y3A3: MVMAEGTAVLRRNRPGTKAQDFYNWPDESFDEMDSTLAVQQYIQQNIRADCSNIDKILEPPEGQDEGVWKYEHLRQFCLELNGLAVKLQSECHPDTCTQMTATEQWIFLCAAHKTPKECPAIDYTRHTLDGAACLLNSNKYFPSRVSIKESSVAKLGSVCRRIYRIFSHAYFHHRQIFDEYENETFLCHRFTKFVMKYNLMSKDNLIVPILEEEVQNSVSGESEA
UniProt P49959: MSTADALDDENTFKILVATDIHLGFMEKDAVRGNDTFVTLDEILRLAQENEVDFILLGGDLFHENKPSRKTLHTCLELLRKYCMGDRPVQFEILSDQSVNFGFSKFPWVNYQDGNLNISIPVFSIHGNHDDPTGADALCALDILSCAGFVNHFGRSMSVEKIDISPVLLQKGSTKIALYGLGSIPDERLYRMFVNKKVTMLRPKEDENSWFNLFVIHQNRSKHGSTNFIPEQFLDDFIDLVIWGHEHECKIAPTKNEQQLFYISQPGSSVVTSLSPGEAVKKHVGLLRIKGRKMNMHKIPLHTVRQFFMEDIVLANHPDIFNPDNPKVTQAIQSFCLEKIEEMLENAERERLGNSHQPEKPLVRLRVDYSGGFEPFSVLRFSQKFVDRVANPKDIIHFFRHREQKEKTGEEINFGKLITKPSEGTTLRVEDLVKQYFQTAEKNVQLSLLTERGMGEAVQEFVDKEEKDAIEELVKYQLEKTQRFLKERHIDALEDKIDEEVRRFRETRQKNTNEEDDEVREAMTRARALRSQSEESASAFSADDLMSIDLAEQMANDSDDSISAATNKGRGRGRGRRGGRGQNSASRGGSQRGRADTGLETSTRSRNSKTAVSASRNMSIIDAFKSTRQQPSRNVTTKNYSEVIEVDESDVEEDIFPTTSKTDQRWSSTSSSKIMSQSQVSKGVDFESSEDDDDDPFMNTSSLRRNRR

Row | Target | probe-labelled cysteine peptide fold change (10 µM) | probe-labelled cysteine peptide fold change (50 µM)
1 | MKI67_P46013_1285_KADVEGELLACR (UniProt P46013) | -0.251 | -0.379
2 | MPDU1_O75352_37_CYDQLFVQWDLLHVPCLK (UniProt O75352) | -0.136 | 0.184
3 | MIS18BP1_Q6P0N0_870_HPLECLPGLIQDK (UniProt Q6P0N0) | 0.0139 | 0.121
4 | MRI1_Q9BV20_168_VTVLTHCNTGALATAGYGTALGVIR (UniProt Q9BV20) | 0.147 | 0.0771
5 | MRPL39_Q9NYK5_152_SCAMMMGCVIER (UniProt Q9NYK5) | -0.0767 | -0.0761
6 | MMACHC_Q9Y4U1_82_MLTDPVDQCVAYHLGR (UniProt Q9Y4U1) | -0.0125 | -0.14
7 | MON2_Q7Z3U7_1033_LGELCVDPR (UniProt Q7Z3U7) | -0.0636 | -0.0416
8 | MRI1_Q9BV20_285_HHGIPFYVAAPSSSCDLR (UniProt Q9BV20) | 0.0336 | -0.0315
9 | MIOS_Q9NXC5_621_VAFACK (UniProt Q9NXC5) | 0.0521 | 0.235
10 | MOV10_Q9HCE1_553+564_AHILACAPSNSGADLLCQR (UniProt Q9HCE1) | -0.077 | -0.358
11 | MPHOSPH10_O00566_27_ATGRPECFLTIQEGLASK (UniProt O00566) | -0.0805 | 0.0291
12 | MPST_P25325_65_HIPGAAFFDIDQCSDR (UniProt P25325) | -0.0705 | -0.0542
13 | MOB4_Q9Y3A3_51_ADCSNIDK (UniProt Q9Y3A3) | -0.0815 | 0.00286
14 | MRI1_Q9BV20_199_LEHAFCTETRPYNQGAR (UniProt Q9BV20) | -0.0624 | -0.0425
15 | MNDA_P41218_385_LVCGSHSFIK (UniProt P41218) | -0.157 | 0.177
16 | MKNK1_Q9BUB5_231_ICDFDLGSGMK (UniProt Q9BUB5) | -0.302 | 0.127
17 | MRPL28_Q13084_154_EDLCSK (UniProt Q13084) | 0.0466 | 0.176
18 | MOB4_Q9Y3A3_97_LQSECHPDTCTQMTATEQWIFLCAAHK (UniProt Q9Y3A3) | -0.00522 | 0.0446
19 | MPST_P25325_7_ASPQLCR (UniProt P25325) | -0.141 | -0.0522
20 | MRE11_P49959_249_HGSTNFIPEQFLDDFIDLVIWGHEHECK (UniProt P49959) | 0.0264 | 0.203
21 | MKI67_P46013_1981_ITEVSCK (UniProt P46013) | -0.217 | -0.252
22 | MRPL53_Q96EL3_63_HDGSEPCVDVLFGDGHR (UniProt Q96EL3) | 0.231 | 0.167

Part of the list above in another layout.

| Row | Target | probe-labelled cysteine peptide fold change (10 µM) | probe-labelled cysteine peptide fold change (50 µM) |
| --- | --- | --- | --- |
| 8 | MRI1_Q9BV20_285_HHGIPFYVAAPSSSCDLR (UniProt Q9BV20) | 0.0336 | -0.0315 |
| 9 | MIOS_Q9NXC5_621_VAFACK (UniProt Q9NXC5) | 0.0521 | 0.235 |

From the supplement of paper PMC12067093, “Discovery and optimisation of a covalent ligand for TRIM25 and its application to targeted protein ubiquitination” (Chemical Science, 2025)
